Protein sequences, listed by entry. Tags and fused reporters are not part of them. Lines headed by an entry give the natural chain unless they say otherwise; changes in a name come on top.
UniProt P18054: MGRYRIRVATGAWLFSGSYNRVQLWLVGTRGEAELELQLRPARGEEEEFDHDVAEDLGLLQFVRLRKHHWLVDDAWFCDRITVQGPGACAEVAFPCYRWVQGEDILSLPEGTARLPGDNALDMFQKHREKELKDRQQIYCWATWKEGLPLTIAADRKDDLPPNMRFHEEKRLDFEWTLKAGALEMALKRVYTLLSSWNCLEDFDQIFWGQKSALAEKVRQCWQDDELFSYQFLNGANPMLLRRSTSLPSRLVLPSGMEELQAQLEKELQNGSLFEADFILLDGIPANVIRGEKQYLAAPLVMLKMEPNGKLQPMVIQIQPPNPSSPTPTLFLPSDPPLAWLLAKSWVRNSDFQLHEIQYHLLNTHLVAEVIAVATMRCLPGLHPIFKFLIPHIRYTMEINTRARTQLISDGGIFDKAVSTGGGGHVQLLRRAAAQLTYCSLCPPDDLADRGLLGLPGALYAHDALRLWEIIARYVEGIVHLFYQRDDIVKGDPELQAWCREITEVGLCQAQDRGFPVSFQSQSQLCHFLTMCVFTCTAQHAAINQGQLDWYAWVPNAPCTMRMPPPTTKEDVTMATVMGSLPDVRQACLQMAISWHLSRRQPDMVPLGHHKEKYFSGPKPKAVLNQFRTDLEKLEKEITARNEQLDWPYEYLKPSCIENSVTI

“And” between values parts separate entries of the source, which are not always exact repeats. Equal entries are not always repeated. Hit rate of the full screen: of about 580,000 compounds, about 6,100 (1.1%) were called active. Inconclusive means that the source gave no clear call. Such entries were picked first, then a sample of the others. The call rests on the fitted dose curve; in most records, active means well fitted inhibition curve with a large enough effect; inconclusive means small, poorly fitted or top-dose-only effect, or another doubt; inactive means no such curve, though single readings can be large or run the other way. A potency beside an inconclusive call is a rough fit, not a confirmed value.
These compounds were tested against Polyunsaturated fatty acid lipoxygenase ALOX12 (Homo sapiens) (UniProt P18054) (assay: Primary qHTS assay for inhibitors of human arachidonate 12S-lipoxygenase (ALOX12): Round 2). Conditions: purified 12hLO, xylenol orange hydroperoxide absorbance; activity change, negative = inhibition: at 108 µM (top of the series) unless noted.
In short: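 Hydroperoxide product was detected by ferrous iron/xylenol orange as the 573 to 405 nm absorbance ratio. Arachidonic acid at 40 uM (final) was turned over for 30 min at room temperature by 150 nM human 12hLO, pH 7.0 Hepes buffer, after 15 min compound preincubation.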
`CCOC(=O)c1ccc(NC(=S)NCCc2ccccc2)cc1` was tested, and the Potency was inconclusive: 10 µM [inhibitor, partial curve, poor fit].
In the case of `CCc1ccc(N(Cc2cccs2)C(=O)c2ccccc2C)cc1`, the Potency is reported as “inactive”.
For `CCC(Oc1ccc(F)cc1)C(=O)Nc1nc2c(s1)CCCC2` (stereo unspecified), the Potency was inconclusive: 89.1 µM [inhibitor, partial curve, poor fit].
For `Cc1ccc(Nc2cc(C(=O)NC3CCC(C)CC3)c3ccccc3n2)cc1C` (stereo unspecified), the Potency was “inactive”.
`O=C(COC(=O)c1ccc2ccccc2n1)Nc1ncc(C(F)(F)F)cc1Cl` was tested, and the Potency was inconclusive: 7.08 µM [inhibitor, full curve, poor fit].
For `OC(C#CCN1CCOCC1)(c1ccccc1)C1CC1` (stereo unspecified), the Potency was inconclusive: 39.8 µM [inhibitor, partial curve, poor fit] and the activity change, negative = inhibition was inconclusive: -46.6% [inhibitor].
`COc1ccc(C(=O)Nc2cc([N+](=O)[O-])ccc2N2CCN(C)CC2)cc1` was tested, and the Potency was “inactive”.
In the case of `CC(C)(C)CCN1CCC(F)(c2nc(-c3ccccc3)no2)CC1`, the Potency is reported as “inactive”.
With `Cc1ccc(C(=O)N/N=C(/CC(=O)c2cccs2)C(F)(F)F)cc1` the Potency was “inactive”.
In the case of `Cc1cccc(C(=O)NCC(=O)OCC(=O)N(C)CC(=O)Nc2ccccc2Cl)c1`, the Potency is reported as inconclusive: 4.47 µM [inhibitor, full curve, poor fit].
For `O=C(O)C[C@@H]1CCN(C(=O)C2CCCC2)C[C@@H]1CC1=NCCc2cc(F)ccc21`, the Potency was inconclusive: 63.1 µM [inhibitor, partial curve, poor fit].
`CCc1ccc(-c2cc(C)no2)cc1S(=O)(=O)NCc1ccco1` was tested, and the Potency was inconclusive: 44.7 µM [inhibitor, partial curve] and inconclusive: 70.8 µM [inhibitor, partial curve, poor fit].
`CCC[C@H]1[C@@H](NC(=O)Nc2cccc(C#N)c2)CC[C@@]23CCCN2C(=O)CCC[C@@H]13` was tested, and the Potency was inconclusive: 100 µM [inhibitor, single point].
For `O=C(Nc1ccc([N+](=O)[O-])cc1O)Nc1ccccc1Br`, the Potency was inconclusive: 7.94 µM [inhibitor, full curve, poor fit].
In the case of `CCn1c2ccccc2c2cc(NC(=O)c3cccc([N+](=O)[O-])c3C)ccc21`, the Potency is reported as inconclusive: 2 µM [inhibitor, full curve, poor fit].
For `Nc1c(C(=O)c2ccc(Cl)cc2)sc2nc3c(cc12)CCC3`, the Potency was “inactive”.
With `O=C(c1ccccc1)N1CC(COc2ccccc2)OC(c2ccco2)O1` (stereo unspecified) the Potency was inconclusive: 39.8 µM [inhibitor, partial curve, poor fit].
`CN(C)c1ccc(/C=C2\SC(N3CCCCC3)=NC2=O)cc1` was tested, and the Potency was inconclusive: 89.1 µM [inhibitor, single point].
For `Cc1ccc(Oc2ncccc2C(=O)NCC(=O)O)cc1`, the Potency was inconclusive: 0.891 µM [inhibitor, full curve, poor fit].
`COc1ccc2c(c1)C[C@]1(C)c3ccccc3C(=O)N(Cc3ccccc3)[C@H]21` was tested, and the Potency was “inactive”.
In the case of `OCc1cc(CC2(NC3CCC3)COC2)no1`, the Potency is reported as inconclusive: 79.4 µM [inhibitor, partial curve].
In the case of `O=C(c1ccccc1)N1CCN(Cc2c[nH]c3ccccc23)CC1`, the Potency is reported as inconclusive: 0.631 µM [inhibitor, full curve].
With `COc1ccc(-c2cnc3[nH]cc(CC(=O)Nc4cccnc4)c3c2)cc1` the Potency was inconclusive: 112 µM [inhibitor, single point].
`Cc1cnc(C(=O)O)c[n+]1[O-]` was tested, and the Potency was inconclusive: 1.41 µM [inhibitor, full curve, poor fit].
With `FC(F)(F)c1ccc(CN2CCNc3cc(Nc4ccccc4)ncc3C2)cc1` the Potency was inconclusive: 79.4 µM [inhibitor, partial curve, poor fit].
With `CCCSC1=N/C(=C\C=C\c2ccco2)C(=O)S1` the Potency was inconclusive: 5.01 µM [inhibitor, full curve, poor fit].
In the case of `O=C(CCCCl)Oc1ccc2cc(-c3ccc4ccccc4n3)c(=O)oc2c1`, the Potency is reported as “inactive”.
`CC(=O)/C(=N/Nc1cccc(C)c1)N1CCOCC1` was tested, and the Potency was inconclusive: 39.8 µM [inhibitor, partial curve, poor fit].
`COc1ccc(NC(=O)C(CCSC)NC(N)=O)cc1Cl` (stereo unspecified) was tested, and the Potency was inconclusive: 70.8 µM [inhibitor, single point].
With `CCN1C(=O)[C@H]2[C@@H](c3ccc(-c4ccc(Cl)c(Cl)c4)cc3)N[C@@](C)(C(=O)OC)[C@H]2C1=O` the Potency was active: 39.8 µM.
With `CC(C)c1ccc(C(C)NCCS(=O)(=O)c2ccc(Br)cc2)cc1` (stereo unspecified) the Potency was inconclusive: 39.8 µM [inhibitor, single point].
`Cc1cccc(/C=N/n2c(COc3ccccc3)n[nH]c2=S)c1` was tested, and the Potency was active: 39.8 µM.
`Cc1ccc(NS(=O)(=O)c2ccc(Cl)s2)cc1S(=O)(=O)N(C)C` was tested, and the Potency was inconclusive: 44.7 µM [inhibitor, partial curve, poor fit].
`C/C(Cn1cnc([N+](=O)[O-])n1)=N\NC(=O)c1ccc(F)cc1` was tested, and the Potency was inconclusive: 0.631 µM [inhibitor, full curve, poor fit].
`CC(OC(=O)COc1cccc2c1OC(C)(C)C2)C(=O)Nc1ccc(S(N)(=O)=O)cc1` (stereo unspecified) was tested, and the Potency was inconclusive: 112 µM [inhibitor, single point].
In the case of `Cc1ccc(C)c(-n2c(Cc3cc(=O)[nH]c(=O)[nH]3)nnc2SCC(=O)c2ccc(Cl)cc2)c1`, the Potency is reported as inconclusive: 89.1 µM [inhibitor, partial curve, poor fit].
In the case of `O=C(NC1CCCCC1)c1ccc(Cn2c(SCc3ccccc3)nc3cccnc32)cc1`, the Potency is reported as inconclusive: 89.1 µM [inhibitor, partial curve, poor fit].
With `Oc1ccc(C[C@H]2CN([C@@H](Cc3ccc(O)cc3)CN3CCC[C@@H]3CN3C(=S)NC[C@@H]3Cc3ccccc3)C(=S)N2CCc2ccccc2)cc1` the Potency was “inactive”.
With `COc1ccc(-c2cccc(COc3cnc4c(ccn4CC(=O)O)c3)c2)c(C)c1` the Potency was active: 44.7 µM.
`CC(C)CC(NC(=O)CC12CC3CC(CC(C3)C1)C2)C(=O)NC1=NCCS1` (stereo unspecified) was tested, and the Potency was “inactive”.

Source: PubChem BioAssay AID1671190 (National Center for Advancing Translational Sciences (NCATS), 2021)
On the % scale 0 is the no-effect control and ±100 the full control effect; potency means the concentration at half of the fitted maximal effect.
